This experiment deals with T1, EpCAM (Epithelial Cell Adhesion Molecule) (human) (UniProt P16422).
T1 sequence: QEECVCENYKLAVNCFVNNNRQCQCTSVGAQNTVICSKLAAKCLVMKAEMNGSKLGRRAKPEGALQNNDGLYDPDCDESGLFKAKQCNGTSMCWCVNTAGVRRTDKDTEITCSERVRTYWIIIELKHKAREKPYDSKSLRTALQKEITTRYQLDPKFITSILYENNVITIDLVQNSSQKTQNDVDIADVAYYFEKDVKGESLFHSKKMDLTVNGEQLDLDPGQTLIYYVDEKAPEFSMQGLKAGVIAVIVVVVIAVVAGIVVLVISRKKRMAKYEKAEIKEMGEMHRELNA
The experiment in a line: co-IP; cell lysate (50 mM Tris/HCl pH 8.0, 150 mM NaCl, 1 mM DTT, 0.5% NP-40, 1% Triton X-100, 1 mM EGTA, 1 mM EDTA); precleared, antibodies overnight at 4 °C, protein A-Sepharose beads 2 h, three washes with lysis buffer, immunoblot; which protein was precipitated is not told. For orientation: Immunoblotting shows a protein as a band on a membrane.

By UniProt entry, the sequences of proteins in these tests, tags left out.
UniProt O43707: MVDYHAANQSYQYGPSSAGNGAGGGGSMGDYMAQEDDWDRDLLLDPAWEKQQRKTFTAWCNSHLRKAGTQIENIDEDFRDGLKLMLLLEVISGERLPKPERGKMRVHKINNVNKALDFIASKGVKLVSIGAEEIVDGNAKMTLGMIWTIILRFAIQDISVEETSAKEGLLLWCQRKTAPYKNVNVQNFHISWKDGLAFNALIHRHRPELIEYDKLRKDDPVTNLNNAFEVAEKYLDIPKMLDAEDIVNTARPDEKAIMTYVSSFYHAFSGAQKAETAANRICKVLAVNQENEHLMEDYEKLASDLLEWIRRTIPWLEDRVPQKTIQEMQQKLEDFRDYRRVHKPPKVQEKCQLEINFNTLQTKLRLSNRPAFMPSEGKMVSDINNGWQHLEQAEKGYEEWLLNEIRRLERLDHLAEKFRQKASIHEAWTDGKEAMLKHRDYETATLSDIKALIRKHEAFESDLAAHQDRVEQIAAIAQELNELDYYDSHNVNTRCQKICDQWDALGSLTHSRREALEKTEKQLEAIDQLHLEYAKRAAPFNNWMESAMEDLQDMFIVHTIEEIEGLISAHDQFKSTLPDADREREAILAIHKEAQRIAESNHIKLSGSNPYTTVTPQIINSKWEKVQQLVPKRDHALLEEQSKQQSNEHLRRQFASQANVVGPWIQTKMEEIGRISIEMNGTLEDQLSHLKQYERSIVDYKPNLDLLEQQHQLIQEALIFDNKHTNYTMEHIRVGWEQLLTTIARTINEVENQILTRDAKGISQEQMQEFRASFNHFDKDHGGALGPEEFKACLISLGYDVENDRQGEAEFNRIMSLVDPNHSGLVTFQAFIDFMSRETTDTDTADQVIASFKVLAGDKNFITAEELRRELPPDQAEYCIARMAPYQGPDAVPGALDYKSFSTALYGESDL

Experimental findings from article PMC8044225 are described below.

Results are given in words; binding and its absence hold for the method and conditions named. Binding seen in cells or lysates may run through a third protein.

In the case of α4-actinin (from UniProt O43707 1-911), the binding entry is “no binding”.
